We go through five molecules from paper PMC11873285.

Results are given in words; binding and its absence hold for the method and conditions named. Binding seen in cells or lysates may run through a third protein. Some results given as binding are weak or reduced against the parent protein; the word gives no strength. For some assays here: Tags and fused reporters may be left off the sequences shown.

The target in assay [1] is VC-HRAS (full-length human HRas proto-oncogene GTPase fused to the C-terminal half of Venus) (human) (UniProt P01112). Description: split reporter; split Venus (pBiFC-VN173 / pBiFC-VC155, N-terminal-tagged); cotransfected MH7A cells (results) or HEK293T cells (methods); fixed with 4% paraformaldehyde, Venus fluorescence by confocal microscopy.
Assay [2] concerns the target GFP-tagged HRAS (GFP–HRAS) (human) (UniProt P01112). Description: co-IP; lysates of cells coexpressing GFP-HRAS and HA-tagged PLCη2 constructs (MH7A in results, HEK293T in methods); IP with anti-GFP overnight at 4 °C in 5 mM HEPES pH 7.5, 250 mM NaCl, 0.5% NP-40, 10% glycerol, 2 mM EDTA; protein A/G agarose; blot with anti-HA.
The target of assay [3] is HRAS, endogenous in MH7A cells (active, GTP-bound HRAS) (human (endogenous in MH7A)) (UniProt P01112). Description: pull-down; same RAS-GTP pull-down, read for the effect of PLCη2 overexpressed in the MH7A cells on endogenous HRAS; both in the cell extract.

B1: VN-PLCη2 (full-length human PLCη2 fused to the N-terminal half of Venus) (protein, UniProt O75038-1 1-1416)
chain: MSGPWPSPDSRTKGTVAWLAEVLLWVGGSVVLSSEWQLGPLVERCMGAMQEGMQMVKLRGGSKGLVRFYYLDEHRSCIRWRPSRKNEKAKISIDSIQEVSEGRQSEVFQRYPDGSFDPNCCFSIYHGSHRESLDLVSTSSEVARTWVTGLRYLMAGISDEDSLARRQRTRDQWLKQTFDEADKNGDGSLSIGEVLQLLHKLNVNLPRQRVKQMFREADTDDHQGTLGFEEFCAFYKMMSTRRDLYLLMLTYSNHKDHLDAASLQRFLQVEQKMAGVTLESCQDIIEQFEPCPENKSKGLLGIDGFTNYTRSPAGDIFNPEHHHVHQDMTQPLSHYFITSSHNTYLVGDQLMSQSRVDMYAWVLQAGCRCVEVDCWDGPDGEPIVHHGYTLTSKILFKDVIETINKYAFIKNEYPVILSIENHCSVIQQKKMAQYLTDILGDKLDLSSVSSEDATTLPSPQMLKGKILVKGKKLPANISEDAEEGEVSDEDSADEIDDDCKLLNGDASTNRKRVENTAKRKLDSLIKESKIRDCEDPNNFSVSTLSPSGKLGRKSKAEEDVESGEDAGASRRNGRLVVGSFSRRKKKGSKLKKAASVEEGDEGQDSPGGQSRGATRQKKTMKLSRALSDLVKYTKSVATHDIEMEAASSWQVSSFSETKAHQILQQKPAQYLRFNQQQLSRIYPSSYRVDSSNYNPQPFWNAGCQMVALNYQSEGRMLQLNRAKFSANGGCGYVLKPGCMCQGVFNPNSEDPLPGQLKKQLVLRIISGQQLPKPRDSMLGDRGEIIDPFVEVEIIGLPVDCSREQTRVVDDNGFNPTWEETLVFMVHMPEIALVRFLVWDHDPIGRDFIGQRTLAFSSMMPGYRHVYLEGMEEASIFVHVAVSDISGKVKQALGLKGLFLRGPKPGSLDSHAAGRPPARPSVSQRILRRTASAPTKSQKPGRRGFPELVLGTRDTGSKGVADDVVPPGPGPAPEAPAQEGPGSGSPRDTRPLSTQRPLPPLCSLETIAEEPAPGPGPPPPAAVPTSSSQGRPPYPTGPGANVASPLEDTEEPRDSRPRPCNGEGAGGAYERAPGSQTDGRSQPRTLGHLPVIRRVKSEGQVPTEPLGGWRPLAAPFPAPAVYSDATGSDPLWQRLEPCGHRDSVSSSSSMSSSDTVIDLSLPSLGLGRSRENLAGAHMGRLPPRPHSASAARPDLPPVTKSKSNPNLRATGQRPPIPDELQPRSLAPRMAGLPFRPPWGCLSLVGVQDCPVAAKSKSLGDLTADDFAPSFEGGSRRLSHSLGLPGGTRRVSGPGVRRDTLTEQLRWLTVFQQAGDITSPTSLGPAGEGVAGGPGFVRRSSSRSHSRVRAIASRARQAQERQQRLQGLGRQGPPEEERGTPEGACSVGHEGSVDAPAPSKGALGPASAAAENLVLLRL
Regarding B1, the binding entry in assay [1] is recorded as “binds”.

B2: HA-tagged PLCη2 (HA–PLCη2) (protein, UniProt O75038-1 1-1416)
chain: MSGPWPSPDSRTKGTVAWLAEVLLWVGGSVVLSSEWQLGPLVERCMGAMQEGMQMVKLRGGSKGLVRFYYLDEHRSCIRWRPSRKNEKAKISIDSIQEVSEGRQSEVFQRYPDGSFDPNCCFSIYHGSHRESLDLVSTSSEVARTWVTGLRYLMAGISDEDSLARRQRTRDQWLKQTFDEADKNGDGSLSIGEVLQLLHKLNVNLPRQRVKQMFREADTDDHQGTLGFEEFCAFYKMMSTRRDLYLLMLTYSNHKDHLDAASLQRFLQVEQKMAGVTLESCQDIIEQFEPCPENKSKGLLGIDGFTNYTRSPAGDIFNPEHHHVHQDMTQPLSHYFITSSHNTYLVGDQLMSQSRVDMYAWVLQAGCRCVEVDCWDGPDGEPIVHHGYTLTSKILFKDVIETINKYAFIKNEYPVILSIENHCSVIQQKKMAQYLTDILGDKLDLSSVSSEDATTLPSPQMLKGKILVKGKKLPANISEDAEEGEVSDEDSADEIDDDCKLLNGDASTNRKRVENTAKRKLDSLIKESKIRDCEDPNNFSVSTLSPSGKLGRKSKAEEDVESGEDAGASRRNGRLVVGSFSRRKKKGSKLKKAASVEEGDEGQDSPGGQSRGATRQKKTMKLSRALSDLVKYTKSVATHDIEMEAASSWQVSSFSETKAHQILQQKPAQYLRFNQQQLSRIYPSSYRVDSSNYNPQPFWNAGCQMVALNYQSEGRMLQLNRAKFSANGGCGYVLKPGCMCQGVFNPNSEDPLPGQLKKQLVLRIISGQQLPKPRDSMLGDRGEIIDPFVEVEIIGLPVDCSREQTRVVDDNGFNPTWEETLVFMVHMPEIALVRFLVWDHDPIGRDFIGQRTLAFSSMMPGYRHVYLEGMEEASIFVHVAVSDISGKVKQALGLKGLFLRGPKPGSLDSHAAGRPPARPSVSQRILRRTASAPTKSQKPGRRGFPELVLGTRDTGSKGVADDVVPPGPGPAPEAPAQEGPGSGSPRDTRPLSTQRPLPPLCSLETIAEEPAPGPGPPPPAAVPTSSSQGRPPYPTGPGANVASPLEDTEEPRDSRPRPCNGEGAGGAYERAPGSQTDGRSQPRTLGHLPVIRRVKSEGQVPTEPLGGWRPLAAPFPAPAVYSDATGSDPLWQRLEPCGHRDSVSSSSSMSSSDTVIDLSLPSLGLGRSRENLAGAHMGRLPPRPHSASAARPDLPPVTKSKSNPNLRATGQRPPIPDELQPRSLAPRMAGLPFRPPWGCLSLVGVQDCPVAAKSKSLGDLTADDFAPSFEGGSRRLSHSLGLPGGTRRVSGPGVRRDTLTEQLRWLTVFQQAGDITSPTSLGPAGEGVAGGPGFVRRSSSRSHSRVRAIASRARQAQERQQRLQGLGRQGPPEEERGTPEGACSVGHEGSVDAPAPSKGALGPASAAAENLVLLRL
For B2, in assay [2], the binding entry was “binds”.

B3: PLCη2 overexpressed in MH7A cells from a PLCη2 plasmid (protein, UniProt O75038 1-1416)
chain: MSGPWPSPDSRTKGTVAWLAEVLLWVGGSVVLSSEWQLGPLVERCMGAMQEGMQMVKLRGGSKGLVRFYYLDEHRSCIRWRPSRKNEKAKISIDSIQEVSEGRQSEVFQRYPDGSFDPNCCFSIYHGSHRESLDLVSTSSEVARTWVTGLRYLMAGISDEDSLARRQRTRDQWLKQTFDEADKNGDGSLSIGEVLQLLHKLNVNLPRQRVKQMFREADTDDHQGTLGFEEFCAFYKMMSTRRDLYLLMLTYSNHKDHLDAASLQRFLQVEQKMAGVTLESCQDIIEQFEPCPENKSKGLLGIDGFTNYTRSPAGDIFNPEHHHVHQDMTQPLSHYFITSSHNTYLVGDQLMSQSRVDMYAWVLQAGCRCVEVDCWDGPDGEPIVHHGYTLTSKILFKDVIETINKYAFIKNEYPVILSIENHCSVIQQKKMAQYLTDILGDKLDLSSVSSEDATTLPSPQMLKGKILVKGKKLPANISEDAEEGEVSDEDSADEIDDDCKLLNGDASTNRKRVENTAKRKLDSLIKESKIRDCEDPNNFSVSTLSPSGKLGRKSKAEEDVESGEDAGASRRNGRLVVGSFSRRKKKGSKLKKAASVEEGDEGQDSPGGQSRGATRQKKTMKLSRALSDLVKYTKSVATHDIEMEAASSWQVSSFSETKAHQILQQKPAQYLRFNQQQLSRIYPSSYRVDSSNYNPQPFWNAGCQMVALNYQSEGRMLQLNRAKFSANGGCGYVLKPGCMCQGVFNPNSEDPLPGQLKKQLVLRIISGQQLPKPRDSMLGDRGEIIDPFVEVEIIGLPVDCSREQTRVVDDNGFNPTWEETLVFMVHMPEIALVRFLVWDHDPIGRDFIGQRTLAFSSMMPGYRHVYLEGMEEASIFVHVAVSDISGKVKQALGLKGLFLRGPKPGSLDSHAAGRPPARPSVSQRILRRTASAPTKSQKPGRRGFPELVLGTRDTGSKGVADDVVPPGPGPAPEAPAQEGPGSGSPRDTRPLSTQRPLPPLCSLETIAEEPAPGPGPPPPAAVPTSSSQGRPPYPTGPGANVASPLEDTEEPRDSRPRPCNGEGAGGAYERAPGSQTDGRSQPRTLGHLPVIRRVKSEGQVPTEPLGGWRPLAAPFPAPAVYSDATGSDPLWQRLEPCGHRDSVSSSSSMSSSDTVIDLSLPSLGLGRSRENLAGAHMGRLPPRPHSASAARPDLPPVTKSKSNPNLRATGQRPPIPDELQPRSLAPRMAGLPFRPPWGCLSLVGVQDCPVAAKSKSLGDLTADDFAPSFEGGSRRLSHSLGLPGGTRRVSGPGVRRDTLTEQLRWLTVFQQAGDITSPTSLGPAGEGVAGGPGFVRRSSSRSHSRVRAIASRARQAQERQQRLQGLGRQGPPEEERGTPEGACSVGHEGSVDAPAPSKGALGPASAAAENLVLLRL
Turning to B3, in assay [3], the binding result was “binds”.

B4: VN-PLCη2_C2 (C2 domain of human PLCη2 fused to the N-terminal half of Venus) (domain or fragment, UniProt O75038-1 741-872)
chain: QGVFNPNSEDPLPGQLKKQLVLRIISGQQLPKPRDSMLGDRGEIIDPFVEVEIIGLPVDCSREQTRVVDDNGFNPTWEETLVFMVHMPEIALVRFLVWDHDPIGRDFIGQRTLAFSSMMPGYRHVYLEGMEE
With B4, the binding entry in assay [1] is listed as “binds”.

B5: HA-tagged PLCη2_C2 (HA–PLCη2_C2) (domain or fragment, UniProt O75038-1 741-872)
chain: QGVFNPNSEDPLPGQLKKQLVLRIISGQQLPKPRDSMLGDRGEIIDPFVEVEIIGLPVDCSREQTRVVDDNGFNPTWEETLVFMVHMPEIALVRFLVWDHDPIGRDFIGQRTLAFSSMMPGYRHVYLEGMEE
Take B5: the binding result in assay [2] is listed as “binds”.
